{"source": "PubChem BioAssay AID602196 – INSERM – 2012", "test": "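Knock-downs that protect lung cancer cells from cisplatin or sensitise them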", "cells": "human A549 lung cancer cells", "knock-down reagent": "siRNA pair against human genes", "time to read-out": "48 h transfection before cisplatin; time from cisplatin to read-out not stated", "challenge": "cisplatin at a dose killing half of control-siRNA cells; exact dose and duration not given", "read-out": "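Cisplatin cell death as a shift from the 50% death seen with control siRNA; siRNAs toxic or growth-blocking alone scored 0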", "scale": "two-siRNA summed score (-2 to +2): higher = both siRNAs protect from cisplatin killing; -2 means both sensitise; mean protection from cisplatin (shift in death): higher = protection from cisplatin killing", "rule for the call": "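Each siRNA scores 0 if harmful alone by LDH or WST-1, otherwise +1 if it reduces and -1 if it increases cisplatin killing; a gene is active when both siRNAs agree (sum +2 or -2)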", "calls": "active = both siRNAs shift cisplatin killing the same way; inactive = no consistent shift, or siRNA harmful alone", "note": "In all, the deposit lists about 23,000 reagents; shown is a part drawn at random. In the full data, 455 (2%) are marked active. 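Active includes both protection and sensitisation; some change values fall well beyond the stated -50 to +50 range.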 Unmarked entries are inactive. Not all columns of the deposit are shown. The record does not give: the amount of reagent."}
{"gene knocked down": "LOC255275", "two-siRNA summed score (-2 to +2)": 0, "mean protection from cisplatin (shift in death) (%)": 11.6}
{"gene knocked down": "FOXR1", "two-siRNA summed score (-2 to +2)": 0, "mean protection from cisplatin (shift in death) (%)": 1.7}
{"gene knocked down": "METTL13", "two-siRNA summed score (-2 to +2)": 0, "mean protection from cisplatin (shift in death) (%)": -7.7}
{"gene knocked down": "FANCD2OS", "two-siRNA summed score (-2 to +2)": 0, "mean protection from cisplatin (shift in death) (%)": 4}
{"gene knocked down": "UXS1", "two-siRNA summed score (-2 to +2)": 0, "mean protection from cisplatin (shift in death) (%)": 0.3}
{"gene knocked down": "LOC440774", "two-siRNA summed score (-2 to +2)": 1, "mean protection from cisplatin (shift in death) (%)": 9.8}
{"gene knocked down": "HOOK2", "two-siRNA summed score (-2 to +2)": 1, "mean protection from cisplatin (shift in death) (%)": 13}
{"gene knocked down": "LOC390407", "two-siRNA summed score (-2 to +2)": 0, "mean protection from cisplatin (shift in death) (%)": 4.4}
{"gene knocked down": "LOC387754", "two-siRNA summed score (-2 to +2)": 1, "mean protection from cisplatin (shift in death) (%)": 9}
{"gene knocked down": "LACRT", "two-siRNA summed score (-2 to +2)": 1, "mean protection from cisplatin (shift in death) (%)": 18.9}
{"gene knocked down": "ADAMTS1", "two-siRNA summed score (-2 to +2)": 0, "mean protection from cisplatin (shift in death) (%)": 10.1}
{"gene knocked down": "CILP", "two-siRNA summed score (-2 to +2)": 0, "mean protection from cisplatin (shift in death) (%)": 1.2}
{"gene knocked down": "SPX", "two-siRNA summed score (-2 to +2)": 0, "mean protection from cisplatin (shift in death) (%)": 2.5}
{"gene knocked down": "ADARB1", "two-siRNA summed score (-2 to +2)": -1, "mean protection from cisplatin (shift in death) (%)": -7.4}
{"gene knocked down": "NSG2", "two-siRNA summed score (-2 to +2)": 0, "mean protection from cisplatin (shift in death) (%)": -6.9}
{"gene knocked down": "LOC441001", "two-siRNA summed score (-2 to +2)": 0, "mean protection from cisplatin (shift in death) (%)": 12.8}
{"gene knocked down": "APOBEC1", "two-siRNA summed score (-2 to +2)": 0, "mean protection from cisplatin (shift in death) (%)": 4.8}
{"gene knocked down": "KCND1", "two-siRNA summed score (-2 to +2)": 0, "mean protection from cisplatin (shift in death) (%)": -12.6}
{"gene knocked down": "LOC442518", "two-siRNA summed score (-2 to +2)": 0, "mean protection from cisplatin (shift in death) (%)": 24.6}

The list goes on; the last 2 above are carried over.
{"gene knocked down": "KCND1", "two-siRNA summed score (-2 to +2)": 0, "mean protection from cisplatin (shift in death) (%)": -12.6}
{"gene knocked down": "LOC442518", "two-siRNA summed score (-2 to +2)": 0, "mean protection from cisplatin (shift in death) (%)": 24.6}
{"gene knocked down": "LOC341604", "two-siRNA summed score (-2 to +2)": 0, "mean protection from cisplatin (shift in death) (%)": 5.3}
{"gene knocked down": "UQCR10", "two-siRNA summed score (-2 to +2)": 0, "mean protection from cisplatin (shift in death) (%)": 8.2}
{"gene knocked down": "ST6GALNAC6", "two-siRNA summed score (-2 to +2)": 0, "mean protection from cisplatin (shift in death) (%)": -2.9}
{"gene knocked down": "ZBTB3", "two-siRNA summed score (-2 to +2)": 0, "mean protection from cisplatin (shift in death) (%)": 3.4}
{"gene knocked down": "LOC389396", "two-siRNA summed score (-2 to +2)": 0, "mean protection from cisplatin (shift in death) (%)": 7.4}
{"gene knocked down": "SLAMF9", "two-siRNA summed score (-2 to +2)": 0, "mean protection from cisplatin (shift in death) (%)": 2.4}
{"gene knocked down": "UBL4B", "two-siRNA summed score (-2 to +2)": 0, "mean protection from cisplatin (shift in death) (%)": 13.8}
{"gene knocked down": "GC", "two-siRNA summed score (-2 to +2)": 0, "mean protection from cisplatin (shift in death) (%)": 2.5}
{"gene knocked down": "FAP", "two-siRNA summed score (-2 to +2)": -1, "mean protection from cisplatin (shift in death) (%)": -6.1}
{"gene knocked down": "MBD5", "two-siRNA summed score (-2 to +2)": 0, "mean protection from cisplatin (shift in death) (%)": -2.2}
{"gene knocked down": "DERA", "two-siRNA summed score (-2 to +2)": 0, "mean protection from cisplatin (shift in death) (%)": -6.2}
{"gene knocked down": "LOC440147", "two-siRNA summed score (-2 to +2)": 1, "mean protection from cisplatin (shift in death) (%)": 11.3}
